Measurements taken from US20210214435A1.
No constants are given. Whether binding was seen depends on the method and setting. Some results given as binding are weak or reduced against the parent protein; the word gives no strength.

Experiments:
[1] = target: human GPVI-1B extracellular domain fused at its C-terminus to human IgG1 Fc (GPVI-Fc) (human); assay: ELISA, coated GPVI-Fc, Fab titrated
[2] = target: human GPVI-1A extracellular domain fused at its C-terminus to human IgG1 Fc (GPVI-Fc) (human); assay: ELISA, coated GPVI-Fc, Fab titrated
[3] = target: mouse GPVI extracellular domain fused at its C-terminus to human IgG1 Fc (GPVI-Fc) (mouse; human); assay: ELISA, coated GPVI-Fc, Fab titrated
[4] = target: human GPVI-1B extracellular domain fused at its C-terminus to human IgG1 Fc (GPVI-Fc) (human); assay: ELISA, coated GPVI-Fc
[5] = target: human GPVI-1A extracellular domain fused at its C-terminus to human IgG1 Fc (GPVI-Fc) (human); assay: ELISA, coated GPVI-Fc
[6] = target: mouse GPVI extracellular domain fused at its C-terminus to human IgG1 Fc (GPVI-Fc) (mouse; human); assay: ELISA, coated GPVI-Fc
[7] = target: human GPVI-1A extracellular domain fused at its C-terminus to human IgG1 Fc (GPVI-Fc) (human); assay: Solution equilibrium titration (SET)
[8] = target: mouse GPVI extracellular domain fused at its C-terminus to human IgG1 Fc (GPVI-Fc) (mouse; human); assay: Solution equilibrium titration (SET)

Measured: binding

B1: Fab #1 comprising a modified heavy chain constant region (Fab, V domains shown)
VH: QVQLVQSGAEVKKPGASVKVSCKASGYTFTSHYMHWVRQAPGQGLEWMGLIEPSEGETEYAQRFQGRVTMTRDTSTSTVYMELSSLRSEDTAVYYCARDSSRSYPLGFDIWGQGTLVTVSS
VL: QSVLTQPPSVSAAPGQKVTISCSGSSSNIGNNYVSWYQQLPGTAPKLLIYDNNKRPSGIPDRFSGSKSGTSATLGITGLQTEDEADYYCAAWDFRSSRWVFGGGTKLTVLG
binds: all assays above

B2: Fab #2 comprising a modified heavy chain constant region (Fab, V domains shown)
VH: QVQLVESGGGLVKPGGSLRLSCAASGFSFSDHYMSWIRQAPGKGLEWVSSVGSEGKFIDYAASVKGRFTISRDNAKNSLYLQMNSLRAEDTAVYYCARHYREFRWHYYYFDYWGQGTLVTVSS
VL: QSVLTQPPSVSGAPGQRVTISCTGSSSNIGAGYDVHWYQQLPGTAPKLLIYGNSNRPSGVPDRFSGSKSGTSASLAITGLQAEDEADYYCQSHDLGAHVWVFGGGTKLTVLG
binds: all assays above

B3: Fab #3 comprising a modified heavy chain constant region (Fab, V domains shown)
VH: QVQLVESGGGLVKPGGSLRLSCAASGFSFGDYYVSWIRQAPGKGLEWVSAIGGSGSAVQYAESVKGRFTISRDNAKNSLYLQMNSLRAEDTAVYYCARHYREFRWHYYYFDYWGQGTLVTVSS
VL: QSVLTQPPSVSGAPGQRVTISCTGSSSNIGAGYDVHWYQQLPGTAPKLLIYGNSNRPSGVPDRFSGSKSGTSASLAITGLQAEDEADYYCQSHDLGAHVWVFGGGTKLTVLG
binds: all assays above

B4: Fab #4 comprising a modified heavy chain constant region (Fab, V domains shown)
VH: QVQLVQSGAEVKKPGASVKVSCKASGGAFTSSYMHWVRQAPGQGLEWMGIIEPTGASTLYAQRFQGRVTMTRDTSTSTVYMELSSLRSEDTAVYYCARTGIALPLGFDLWGQGTLVTVSS
VL: QSVLTQPPSVSAAPGQKVTISCSGSSSNIGNNYVSWYQQLPGTAPKLLIYDNNKRPSGIPDRFSGSKSGTSATLGITGLQTEDEADYYCAAWSTRFRWVFGGGTKLTVLG
binds: all assays above
